Here are results for two molecules from PMC5007379.

The chains behind the UniProt entries cited, without tags or fusion partners.
UniProt Q5VTR2: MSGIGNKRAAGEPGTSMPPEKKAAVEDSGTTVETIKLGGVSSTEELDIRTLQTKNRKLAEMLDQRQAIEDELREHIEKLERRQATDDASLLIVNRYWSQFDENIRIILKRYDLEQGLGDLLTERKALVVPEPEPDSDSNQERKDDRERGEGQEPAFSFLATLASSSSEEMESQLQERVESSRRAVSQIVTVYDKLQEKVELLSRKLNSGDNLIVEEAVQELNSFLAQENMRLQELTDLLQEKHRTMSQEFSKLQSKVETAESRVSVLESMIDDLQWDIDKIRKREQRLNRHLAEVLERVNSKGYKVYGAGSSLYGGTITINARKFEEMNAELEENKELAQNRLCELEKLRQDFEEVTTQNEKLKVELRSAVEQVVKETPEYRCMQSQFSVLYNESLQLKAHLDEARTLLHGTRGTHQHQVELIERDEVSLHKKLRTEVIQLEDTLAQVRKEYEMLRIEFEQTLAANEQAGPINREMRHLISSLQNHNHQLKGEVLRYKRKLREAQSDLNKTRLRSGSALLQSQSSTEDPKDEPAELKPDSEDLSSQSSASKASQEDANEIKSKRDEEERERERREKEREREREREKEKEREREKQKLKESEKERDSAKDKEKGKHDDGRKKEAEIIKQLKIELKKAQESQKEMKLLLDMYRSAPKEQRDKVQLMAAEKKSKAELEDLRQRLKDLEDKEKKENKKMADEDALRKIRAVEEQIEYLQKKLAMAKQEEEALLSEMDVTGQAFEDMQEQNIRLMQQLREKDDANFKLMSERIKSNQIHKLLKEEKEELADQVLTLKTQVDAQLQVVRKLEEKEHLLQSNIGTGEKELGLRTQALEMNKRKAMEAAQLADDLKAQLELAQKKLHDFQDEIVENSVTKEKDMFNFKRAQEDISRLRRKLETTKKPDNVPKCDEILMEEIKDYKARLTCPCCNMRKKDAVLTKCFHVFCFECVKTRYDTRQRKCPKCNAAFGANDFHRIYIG
UniProt P52732: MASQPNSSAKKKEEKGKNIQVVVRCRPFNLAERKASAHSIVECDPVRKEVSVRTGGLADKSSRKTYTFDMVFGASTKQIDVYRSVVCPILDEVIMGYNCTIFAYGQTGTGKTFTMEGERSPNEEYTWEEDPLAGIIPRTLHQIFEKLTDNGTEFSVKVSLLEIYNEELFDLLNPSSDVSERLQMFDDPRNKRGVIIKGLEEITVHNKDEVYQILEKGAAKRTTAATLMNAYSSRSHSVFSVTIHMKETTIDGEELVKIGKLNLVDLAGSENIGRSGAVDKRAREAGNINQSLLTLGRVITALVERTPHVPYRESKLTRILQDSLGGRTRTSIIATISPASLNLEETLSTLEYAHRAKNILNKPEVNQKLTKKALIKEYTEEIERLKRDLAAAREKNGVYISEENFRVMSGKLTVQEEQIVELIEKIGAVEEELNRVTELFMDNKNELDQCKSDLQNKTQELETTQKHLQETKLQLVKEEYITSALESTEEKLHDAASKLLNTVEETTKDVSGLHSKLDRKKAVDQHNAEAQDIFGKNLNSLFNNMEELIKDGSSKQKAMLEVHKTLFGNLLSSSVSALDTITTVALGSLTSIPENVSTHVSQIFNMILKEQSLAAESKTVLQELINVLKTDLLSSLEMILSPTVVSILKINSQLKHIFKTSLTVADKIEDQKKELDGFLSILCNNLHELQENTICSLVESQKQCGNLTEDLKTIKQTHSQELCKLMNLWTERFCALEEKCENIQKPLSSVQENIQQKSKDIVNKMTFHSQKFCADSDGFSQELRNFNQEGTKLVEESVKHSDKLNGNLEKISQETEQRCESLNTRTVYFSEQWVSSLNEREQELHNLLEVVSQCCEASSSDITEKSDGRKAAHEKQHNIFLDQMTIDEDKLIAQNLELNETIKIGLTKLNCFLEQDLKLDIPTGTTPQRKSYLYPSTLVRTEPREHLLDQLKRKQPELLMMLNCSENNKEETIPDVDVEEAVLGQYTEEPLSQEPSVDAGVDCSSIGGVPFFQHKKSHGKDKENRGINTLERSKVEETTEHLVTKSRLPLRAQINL

This test addresses FLAG-RNF20 (UniProt Q5VTR2). Briefly: affinity purification with mass spectrometry; cellular extracts of HeLa cells stably expressing FLAG-RNF20 on anti-FLAG affinity columns, eluted with FLAG peptides; eluates resolved by SDS-PAGE, silver-stained, bands analysed by mass spectrometry.

No constants are given. Whether binding was seen depends on the method and setting. Binding seen in cells or lysates may run through a third protein. Here binding means that the protein was enriched with, or labelled near, the bait; the list need not be complete.

In the case of “Eg5 (endogenous) (from UniProt P52732 1-1056)”, the binding result was “binds”.

B1: WAC (endogenous) (protein, UniProt Q9BTA9 1-647)
chain: MVMYARKQQRLSDGCHDRRGDSQPYQALKYSSKSHPSSGDHRHEKMRDAGDPSPPNKMLRRSDSPENKYSDSTGHSKAKNVHTHRVRERDGGTSYSPQENSHNHSALHSSNSHSSNPSNNPSKTSDAPYDSADDWSEHISSSGKKYYYNCRTEVSQWEKPKEWLEREQRQKEANKMAVNSFPKDRDYRREVMQATATSGFASGMEDKHSSDASSLLPQNILSQTSRHNDRDYRLPRAETHSSSTPVQHPIKPVVHPTATPSTVPSSPFTLQSDHQPKKSFDANGASTLSKLPTPTSSVPAQKTERKESTSGDKPVSHSCTTPSTSSASGLNPTSAPPTSASAVPVSPVPQSPIPPLLQDPNLLRQLLPALQATLQLNNSNVDISKINEVLTAAVTQASLQSIIHKFLTAGPSAFNITSLISQAAQLSTQAQPSNQSPMSLTSDASSPRSYVSPRISTPQTNTVPIKPLISTPPVSSQPKVSTPVVKQGPVSQSATQQPVTADKQQGHEPVSPRSLQRSSSQRSPSPGPNHTSNSSNASNATVVPQNSSARSTCSLTPALAAHFSENLIKHVQGWPADHAEKQASRLREEAHNMGTIHMSEICTELKNLRSLVRVCEIQATLREQRILFLRQQIKELEKLKNQNSFMV
Turning to B1, the binding entry was “binds”.
